Results: article PMC5608759
These are yes or no findings as the source states them, for the method shown. Some results given as binding are weak or reduced against the parent protein; the word gives no strength. For some of these results: Sequences can lack the tags named with a protein.

The chains behind the UniProt entries cited, without tags or fusion partners.
UniProt P41887: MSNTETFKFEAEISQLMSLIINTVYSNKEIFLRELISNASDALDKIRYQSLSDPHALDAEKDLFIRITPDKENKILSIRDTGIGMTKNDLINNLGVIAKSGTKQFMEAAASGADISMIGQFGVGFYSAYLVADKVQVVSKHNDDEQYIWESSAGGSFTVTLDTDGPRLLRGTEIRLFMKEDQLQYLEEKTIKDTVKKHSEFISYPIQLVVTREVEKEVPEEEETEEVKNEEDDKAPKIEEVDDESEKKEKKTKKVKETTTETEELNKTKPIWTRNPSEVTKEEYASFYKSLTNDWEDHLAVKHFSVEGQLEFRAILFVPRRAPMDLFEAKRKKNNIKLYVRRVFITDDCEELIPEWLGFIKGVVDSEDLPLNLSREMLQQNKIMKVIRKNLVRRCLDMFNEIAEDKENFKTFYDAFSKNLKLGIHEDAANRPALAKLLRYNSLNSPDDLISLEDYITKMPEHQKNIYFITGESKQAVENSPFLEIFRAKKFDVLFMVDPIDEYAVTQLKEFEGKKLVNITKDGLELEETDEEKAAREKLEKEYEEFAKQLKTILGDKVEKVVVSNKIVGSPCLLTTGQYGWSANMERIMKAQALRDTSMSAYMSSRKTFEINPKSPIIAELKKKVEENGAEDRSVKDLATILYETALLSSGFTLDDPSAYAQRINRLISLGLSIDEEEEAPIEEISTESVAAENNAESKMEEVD
UniProt P04150: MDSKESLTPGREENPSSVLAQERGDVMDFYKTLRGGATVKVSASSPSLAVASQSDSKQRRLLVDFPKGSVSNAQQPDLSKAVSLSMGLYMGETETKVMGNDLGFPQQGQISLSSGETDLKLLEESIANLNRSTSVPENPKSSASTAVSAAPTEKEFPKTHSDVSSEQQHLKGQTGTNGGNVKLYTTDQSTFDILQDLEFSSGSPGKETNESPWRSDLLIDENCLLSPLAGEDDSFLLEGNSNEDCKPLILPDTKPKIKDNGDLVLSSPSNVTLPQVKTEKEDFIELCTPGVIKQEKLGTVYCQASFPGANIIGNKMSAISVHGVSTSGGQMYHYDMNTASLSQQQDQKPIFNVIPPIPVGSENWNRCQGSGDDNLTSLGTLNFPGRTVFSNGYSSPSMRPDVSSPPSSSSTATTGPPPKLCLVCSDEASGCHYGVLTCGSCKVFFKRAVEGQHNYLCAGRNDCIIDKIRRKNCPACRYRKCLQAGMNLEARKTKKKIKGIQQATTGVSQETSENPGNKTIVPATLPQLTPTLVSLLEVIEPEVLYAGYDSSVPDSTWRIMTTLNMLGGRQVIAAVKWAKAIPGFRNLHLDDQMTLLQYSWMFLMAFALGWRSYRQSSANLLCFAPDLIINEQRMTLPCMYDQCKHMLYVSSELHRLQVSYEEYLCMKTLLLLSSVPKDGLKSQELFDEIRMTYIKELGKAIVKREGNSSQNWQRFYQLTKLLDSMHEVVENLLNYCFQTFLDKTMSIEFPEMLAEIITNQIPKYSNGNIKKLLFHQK

Key:
Experiment in all cases: two-hybrid; S. cerevisiae Y2HGold (Clontech); human GRα on the Gal4 activation domain (pGADT7), S. pombe genes on the Gal4 DNA-binding domain (pGBKT7); growth of blue colonies on medium without leucine, tryptophan, histidine, adenine, with Aureobasidin A (200 ng/ml) and X-α-Gal; ligand-independent
[1] = target: S. pombe Hsp90 fused to the Gal4 DNA-binding domain (pGBKT7) (S. pombe) (UniProt P41887)
[2] = target: T1, S. pombe eIF3a fused to the Gal4 DNA-binding domain (pGBKT7) (S. pombe) (UniProt O74760)
T1 sequence: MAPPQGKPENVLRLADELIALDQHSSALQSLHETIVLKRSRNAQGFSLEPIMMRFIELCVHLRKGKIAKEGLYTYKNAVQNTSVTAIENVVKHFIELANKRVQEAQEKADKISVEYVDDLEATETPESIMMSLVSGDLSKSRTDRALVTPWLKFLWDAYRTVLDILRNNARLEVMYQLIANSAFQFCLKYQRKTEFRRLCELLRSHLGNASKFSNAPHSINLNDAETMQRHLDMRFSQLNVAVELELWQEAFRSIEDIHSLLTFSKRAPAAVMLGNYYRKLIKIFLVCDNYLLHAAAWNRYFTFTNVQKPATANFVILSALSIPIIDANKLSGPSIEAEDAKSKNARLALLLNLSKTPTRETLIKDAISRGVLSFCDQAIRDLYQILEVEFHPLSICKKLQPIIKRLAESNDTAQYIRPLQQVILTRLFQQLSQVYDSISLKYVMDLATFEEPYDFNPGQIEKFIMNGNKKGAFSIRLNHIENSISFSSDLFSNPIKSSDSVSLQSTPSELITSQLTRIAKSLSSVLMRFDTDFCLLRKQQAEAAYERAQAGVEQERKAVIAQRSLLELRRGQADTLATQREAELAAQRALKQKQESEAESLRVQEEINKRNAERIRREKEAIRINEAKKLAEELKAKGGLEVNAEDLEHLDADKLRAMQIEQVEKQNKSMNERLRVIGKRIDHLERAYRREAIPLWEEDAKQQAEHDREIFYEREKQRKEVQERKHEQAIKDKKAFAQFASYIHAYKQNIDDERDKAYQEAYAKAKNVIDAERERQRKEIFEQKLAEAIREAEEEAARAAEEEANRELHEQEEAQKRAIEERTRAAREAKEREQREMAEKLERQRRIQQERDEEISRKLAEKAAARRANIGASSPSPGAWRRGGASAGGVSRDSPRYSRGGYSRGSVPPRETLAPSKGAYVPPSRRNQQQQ

[3] = target: T2, S. pombe eIF3c fused to the Gal4 DNA-binding domain (pGBKT7) (S. pombe) (UniProt O14164)
T2 sequence: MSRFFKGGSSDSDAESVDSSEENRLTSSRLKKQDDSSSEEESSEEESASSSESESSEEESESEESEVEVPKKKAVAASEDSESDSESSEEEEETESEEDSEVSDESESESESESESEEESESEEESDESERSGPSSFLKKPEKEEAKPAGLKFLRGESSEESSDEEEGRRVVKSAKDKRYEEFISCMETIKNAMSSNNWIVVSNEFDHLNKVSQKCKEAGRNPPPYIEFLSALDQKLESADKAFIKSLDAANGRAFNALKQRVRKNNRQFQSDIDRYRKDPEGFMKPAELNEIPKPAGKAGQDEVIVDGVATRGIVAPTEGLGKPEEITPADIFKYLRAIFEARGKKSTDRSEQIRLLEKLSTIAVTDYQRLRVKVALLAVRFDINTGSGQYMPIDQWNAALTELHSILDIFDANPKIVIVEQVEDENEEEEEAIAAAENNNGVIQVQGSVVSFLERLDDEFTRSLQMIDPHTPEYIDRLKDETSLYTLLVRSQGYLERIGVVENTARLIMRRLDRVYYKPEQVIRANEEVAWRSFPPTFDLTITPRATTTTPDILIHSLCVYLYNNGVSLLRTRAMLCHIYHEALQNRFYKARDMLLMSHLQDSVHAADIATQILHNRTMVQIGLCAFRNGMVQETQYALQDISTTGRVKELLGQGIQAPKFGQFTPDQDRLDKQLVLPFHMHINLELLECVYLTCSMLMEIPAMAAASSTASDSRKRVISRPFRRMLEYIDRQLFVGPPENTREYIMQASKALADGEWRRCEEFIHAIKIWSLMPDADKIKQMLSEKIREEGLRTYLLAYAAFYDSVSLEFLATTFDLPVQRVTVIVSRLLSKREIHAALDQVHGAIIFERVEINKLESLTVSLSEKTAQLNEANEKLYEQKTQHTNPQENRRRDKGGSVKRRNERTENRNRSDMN

[4] = target: T3, S. pombe mts4 fused to the Gal4 DNA-binding domain (pGBKT7) (S. pombe) (UniProt P87048)
T3 sequence: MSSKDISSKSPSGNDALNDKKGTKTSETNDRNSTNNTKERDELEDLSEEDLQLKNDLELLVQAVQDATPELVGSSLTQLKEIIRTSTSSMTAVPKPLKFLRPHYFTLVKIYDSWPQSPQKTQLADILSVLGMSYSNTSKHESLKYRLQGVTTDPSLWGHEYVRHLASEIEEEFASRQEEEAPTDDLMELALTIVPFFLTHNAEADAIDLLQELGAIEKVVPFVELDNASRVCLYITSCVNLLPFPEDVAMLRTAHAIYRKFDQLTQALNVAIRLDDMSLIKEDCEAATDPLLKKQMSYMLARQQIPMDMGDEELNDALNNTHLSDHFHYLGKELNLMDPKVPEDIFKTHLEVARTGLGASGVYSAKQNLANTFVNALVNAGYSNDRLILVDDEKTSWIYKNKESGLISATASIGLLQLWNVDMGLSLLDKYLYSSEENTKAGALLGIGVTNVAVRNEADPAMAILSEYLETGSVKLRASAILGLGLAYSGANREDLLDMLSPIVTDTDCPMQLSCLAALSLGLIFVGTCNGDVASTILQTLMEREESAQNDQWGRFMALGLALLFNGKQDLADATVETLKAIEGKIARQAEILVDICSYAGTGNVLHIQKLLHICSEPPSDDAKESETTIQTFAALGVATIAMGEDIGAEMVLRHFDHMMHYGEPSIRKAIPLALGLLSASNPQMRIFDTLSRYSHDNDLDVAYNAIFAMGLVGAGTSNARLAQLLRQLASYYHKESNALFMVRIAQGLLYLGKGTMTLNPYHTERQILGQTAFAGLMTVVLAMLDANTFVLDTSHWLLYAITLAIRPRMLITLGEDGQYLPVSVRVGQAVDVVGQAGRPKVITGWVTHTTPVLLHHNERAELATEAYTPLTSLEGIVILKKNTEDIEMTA

Measured: binding

human GRα fused to the Gal4 activation domain (pGADT7) (from UniProt P04150 1-777)
binds: all assays above
